Results taken from the supplement of paper PMC10849652.
The list shows a part of the results.

By UniProt entry, the sequences of proteins in these tests, tags left out. Where a name states a change or a piece, a line headed by the entry shows the natural chain unless it says otherwise.
UniProt P57740: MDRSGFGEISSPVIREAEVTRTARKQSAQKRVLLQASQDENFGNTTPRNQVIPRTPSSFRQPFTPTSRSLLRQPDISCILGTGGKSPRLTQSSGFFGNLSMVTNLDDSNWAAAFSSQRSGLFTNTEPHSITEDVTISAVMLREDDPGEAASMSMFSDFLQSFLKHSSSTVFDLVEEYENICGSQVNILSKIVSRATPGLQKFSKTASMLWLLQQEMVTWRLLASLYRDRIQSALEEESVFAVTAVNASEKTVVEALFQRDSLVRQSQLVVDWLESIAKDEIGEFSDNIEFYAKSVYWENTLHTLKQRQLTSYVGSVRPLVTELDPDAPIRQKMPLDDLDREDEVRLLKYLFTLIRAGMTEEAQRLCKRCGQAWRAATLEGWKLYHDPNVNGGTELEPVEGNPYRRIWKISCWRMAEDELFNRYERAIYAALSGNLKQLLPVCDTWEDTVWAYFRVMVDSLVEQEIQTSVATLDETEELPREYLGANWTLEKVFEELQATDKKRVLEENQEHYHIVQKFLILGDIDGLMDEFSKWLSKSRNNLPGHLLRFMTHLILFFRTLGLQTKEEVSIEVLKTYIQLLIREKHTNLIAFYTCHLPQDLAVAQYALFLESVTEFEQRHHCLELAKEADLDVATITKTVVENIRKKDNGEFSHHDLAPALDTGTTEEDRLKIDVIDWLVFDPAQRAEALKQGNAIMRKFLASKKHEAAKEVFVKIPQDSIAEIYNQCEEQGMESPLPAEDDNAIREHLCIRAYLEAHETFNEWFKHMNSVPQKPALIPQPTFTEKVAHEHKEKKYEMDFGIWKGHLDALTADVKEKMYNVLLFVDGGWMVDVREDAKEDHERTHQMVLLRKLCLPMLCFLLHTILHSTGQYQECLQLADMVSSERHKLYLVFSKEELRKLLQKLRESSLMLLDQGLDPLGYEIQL
UniProt Q8N543: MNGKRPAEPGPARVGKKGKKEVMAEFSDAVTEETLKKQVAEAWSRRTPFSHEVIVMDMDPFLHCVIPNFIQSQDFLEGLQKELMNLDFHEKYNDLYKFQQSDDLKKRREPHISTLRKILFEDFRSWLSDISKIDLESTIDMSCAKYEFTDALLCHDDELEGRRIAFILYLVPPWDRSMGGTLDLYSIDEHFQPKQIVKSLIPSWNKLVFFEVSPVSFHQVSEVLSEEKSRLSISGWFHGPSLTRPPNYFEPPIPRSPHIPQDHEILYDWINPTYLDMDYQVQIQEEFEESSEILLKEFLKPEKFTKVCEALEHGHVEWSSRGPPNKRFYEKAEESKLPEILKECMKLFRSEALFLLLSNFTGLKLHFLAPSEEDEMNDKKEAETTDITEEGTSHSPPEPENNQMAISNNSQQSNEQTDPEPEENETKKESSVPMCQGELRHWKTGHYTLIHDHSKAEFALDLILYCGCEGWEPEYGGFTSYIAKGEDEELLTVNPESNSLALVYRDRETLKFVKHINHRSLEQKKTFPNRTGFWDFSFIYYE
UniProt Q8WVJ2: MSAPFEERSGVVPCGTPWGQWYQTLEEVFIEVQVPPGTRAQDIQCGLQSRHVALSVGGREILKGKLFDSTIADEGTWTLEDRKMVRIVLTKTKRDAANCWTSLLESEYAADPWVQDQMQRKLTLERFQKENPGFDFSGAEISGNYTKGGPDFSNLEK
UniProt Q7Z3B4: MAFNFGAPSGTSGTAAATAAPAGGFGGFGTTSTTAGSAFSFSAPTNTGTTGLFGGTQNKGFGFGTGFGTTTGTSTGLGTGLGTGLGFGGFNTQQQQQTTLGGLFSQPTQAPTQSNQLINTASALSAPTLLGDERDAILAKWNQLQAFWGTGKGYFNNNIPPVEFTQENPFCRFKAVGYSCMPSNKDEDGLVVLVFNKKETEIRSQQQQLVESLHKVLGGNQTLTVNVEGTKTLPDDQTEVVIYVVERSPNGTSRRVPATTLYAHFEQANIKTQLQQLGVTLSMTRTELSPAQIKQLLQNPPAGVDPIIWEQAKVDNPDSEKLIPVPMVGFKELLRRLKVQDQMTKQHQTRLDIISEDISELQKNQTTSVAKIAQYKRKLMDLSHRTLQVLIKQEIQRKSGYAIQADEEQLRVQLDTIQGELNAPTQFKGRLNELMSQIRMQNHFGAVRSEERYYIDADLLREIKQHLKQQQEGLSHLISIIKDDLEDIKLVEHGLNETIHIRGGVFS
UniProt Q8N6M0: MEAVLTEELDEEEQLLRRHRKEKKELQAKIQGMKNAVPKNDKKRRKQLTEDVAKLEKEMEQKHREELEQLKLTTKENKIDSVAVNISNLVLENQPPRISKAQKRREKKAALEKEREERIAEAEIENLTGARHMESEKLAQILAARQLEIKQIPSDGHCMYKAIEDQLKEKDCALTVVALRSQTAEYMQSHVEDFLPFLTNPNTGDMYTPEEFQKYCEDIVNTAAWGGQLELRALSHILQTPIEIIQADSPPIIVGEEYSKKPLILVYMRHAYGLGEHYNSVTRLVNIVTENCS
UniProt Q6ZVK8: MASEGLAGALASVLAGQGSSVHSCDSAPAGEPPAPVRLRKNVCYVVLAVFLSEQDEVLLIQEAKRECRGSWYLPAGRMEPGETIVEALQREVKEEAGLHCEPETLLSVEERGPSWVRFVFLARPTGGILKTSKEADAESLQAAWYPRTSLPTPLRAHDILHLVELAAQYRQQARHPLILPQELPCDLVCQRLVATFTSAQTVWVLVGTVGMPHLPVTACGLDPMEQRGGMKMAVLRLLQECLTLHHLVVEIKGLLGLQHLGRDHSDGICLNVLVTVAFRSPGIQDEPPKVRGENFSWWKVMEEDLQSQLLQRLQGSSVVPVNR
UniProt Q86WC4: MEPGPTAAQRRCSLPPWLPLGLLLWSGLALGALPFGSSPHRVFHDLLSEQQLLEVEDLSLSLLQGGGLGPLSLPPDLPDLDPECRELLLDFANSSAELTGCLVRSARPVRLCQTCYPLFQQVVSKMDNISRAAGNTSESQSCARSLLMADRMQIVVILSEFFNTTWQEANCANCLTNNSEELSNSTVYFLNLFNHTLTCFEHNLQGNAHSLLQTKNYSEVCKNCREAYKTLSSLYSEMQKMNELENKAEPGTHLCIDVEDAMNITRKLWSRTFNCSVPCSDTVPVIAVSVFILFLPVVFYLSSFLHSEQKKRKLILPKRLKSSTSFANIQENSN
UniProt Q8NFH5: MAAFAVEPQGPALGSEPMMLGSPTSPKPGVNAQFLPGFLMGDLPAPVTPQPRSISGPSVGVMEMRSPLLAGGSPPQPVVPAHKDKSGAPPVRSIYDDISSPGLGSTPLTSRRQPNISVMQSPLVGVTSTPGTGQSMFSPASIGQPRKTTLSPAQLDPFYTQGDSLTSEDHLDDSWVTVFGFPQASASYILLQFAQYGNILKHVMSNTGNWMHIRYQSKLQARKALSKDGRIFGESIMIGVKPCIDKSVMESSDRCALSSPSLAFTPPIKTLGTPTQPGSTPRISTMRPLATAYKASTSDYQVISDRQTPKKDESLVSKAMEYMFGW
UniProt P04181: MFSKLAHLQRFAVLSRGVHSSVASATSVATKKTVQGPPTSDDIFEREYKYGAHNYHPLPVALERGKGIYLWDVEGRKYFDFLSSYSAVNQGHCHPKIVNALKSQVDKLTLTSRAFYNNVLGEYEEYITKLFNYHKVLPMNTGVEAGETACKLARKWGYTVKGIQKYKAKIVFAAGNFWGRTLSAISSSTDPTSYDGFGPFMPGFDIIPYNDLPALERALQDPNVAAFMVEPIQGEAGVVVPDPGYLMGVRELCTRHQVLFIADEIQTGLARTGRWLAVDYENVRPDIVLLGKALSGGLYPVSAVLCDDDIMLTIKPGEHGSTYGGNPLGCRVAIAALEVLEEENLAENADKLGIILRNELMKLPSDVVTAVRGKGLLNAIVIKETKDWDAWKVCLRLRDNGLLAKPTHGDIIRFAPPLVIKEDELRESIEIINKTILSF

Key:
Assay in all cases: log2 fold change, soluble protein after heating vs DMSO (PISA); higher = thermal stabilisation; K562 cells, 10 uM, 30 min; active = over 0.2 and 3.5 SD of the protein, either way, in both replicates (recomputed)
[1] = compound: COC1=CC=C(C=C1)CN2C=CC3=C2C=C(C=C3)C(=O)NO
Outline: (§1)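 Values are thermal stability changes relative to control samples and are taken from duplicates. They are stated as log2 fold changes. Before quantification by TMTpro 16plex LC-MS/MS with equalised channel sums, K562 cells at 2×10^6 cells/mL were treated with 10 μM compound for 30 min, heated in aliquots for 3 min across 48°C-58°C, pooled, extracted in PBS with 0.5% NP-40 at 4°C, and centrifuged at 21,000xg for 90 min to give the soluble supernatant.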

[2] = compound: CON(C)C(=O)N1N=C(c2cc(F)ccc2F)S[C@@]1(CCCN)c1ccccc1 [filanesib]
Outline: as §1

[3] = compound: CO[C@H]1C[C@@H]2CC[C@@H](C)[C@@](O)(O2)C(=O)C(=O)N2CCCC[C@H]2C(=O)O[C@H]([C@H](C)C[C@@H]2CC[C@H](n3cnnn3)[C@H](OC)C2)CC(=O)[C@H](C)/C=C(\C)[C@@H](O)[C@@H](OC)C(=O)[C@H](C)C[C@H](C)/C=C/C=C/C=C/1C [zotarolimus]
Outline: as §1

[4] = compound: COc1cc(C(=O)O)ccc1NC(=O)[C@@H]1N[C@@H](CC(C)(C)C)[C@](C#N)(c2ccc(Cl)cc2F)[C@H]1c1cccc(Cl)c1F [idasanutlin]
Outline: as §1

[5] = compound: COc1cc(Nc2ncc3c(n2)-c2ccc(Cl)cc2C(c2c(F)cccc2OC)=NC3)ccc1C(=O)O [alisertib]
Outline: as §1

[6] = compound: COc1cc2nc(-c3cc(F)ccc3O)nc(N[C@@H]3CNC[C@H]3C(C)(C)O)c2cc1OC
Outline: as §1

[7] = compound: COc1cc2ncnc(Nc3ccc(F)c(Cl)c3)c2cc1OCCCN1CCOCC1 [gefitinib]
Outline: as §1

[8] = compound: COc1cccc2cc(-c3nc([C@H]4CC[C@H](C(=O)O)CC4)n4ncnc(N)c34)[nH]c12
Outline: as §1

[9] = compound: CS(=O)(=O)CCNCc1ccc(-c2ccc3ncnc(Nc4ccc(OCc5cccc(F)c5)c(Cl)c4)c3c2)o1 [lapatinib]
Outline: as §1

[10] = compound: CS(=O)(=O)N1CCN(Cc2cc3nc(-c4cccc5[nH]ncc45)nc(N4CCOCC4)c3s2)CC1 [pictilisib]
Outline: as §1

[11] = compound: CS(=O)(=O)c1ccc(-c2cnc(N)c(C(=O)Nc3ccccc3)n2)cc1
Outline: as §1

[12] = compound: C[C@@H](Oc1cc(-c2cnn(C3CCNCC3)c2)cnc1N)c1c(Cl)ccc(F)c1Cl [crizotinib]
Outline: as §1

[13] = compound: C[C@@H]1COCCN1C2=NC(=NC(=C2)C3(CC3)S(=O)(=O)C)C4=C5C=CNC5=CC=C4
Outline: as §1

[14] = compound: C[C@H](C1=CC=C(C=C1)C(=O)NC2=C3C=CNC3=NC=C2)N
Outline: as §1

[15] = compound: Cc1cc(Nc2cc(CN3CCOCC3)c3nc(C)c(Cc4ccc(Cl)cc4F)n3n2)n[nH]1 [gandotinib]
Outline: as §1

[16] = compound: Cc1cc(SCc2sc(-c3ccc(C(F)(F)F)cc3)nc2C)ccc1OCC(=O)O
Outline: as §1

[17] = compound: Cc1ccc(-n2nc(C(C)(C)C)cc2NC(=O)Nc2ccc(OCCN3CCOCC3)c3ccccc23)cc1 [doramapimod]
Outline: as §1

[18] = compound: Cc1ccc(C(=O)N(CCCN)[C@@H](c2nc3cc(Cl)ccc3c(=O)n2Cc2ccccc2)C(C)C)cc1 [ispinesib]
Outline: as §1

[19] = compound: C[C@H](Nc1ncnc2nc[nH]c12)c1cc2cccc(Cl)c2c(=O)n1-c1ccccc1 [duvelisib]
Outline: as §1

[20] = compound: Cc1cc(Nc2cc(N3CCN(C)CC3)nc(Sc3ccc(NC(=O)C4CC4)cc3)n2)n[nH]1 [tozasertib]
Outline: as §1

For NUP107 (UniProt P57740), the log2 fold change [1] was inactive: -0.005, the log2 fold change [2] was inactive: 0.233 and the log2 fold change [3] was inactive: 0.032. The log2 fold change [4] was inactive: 0.026, the log2 fold change [5] was inactive: 0.007 and the log2 fold change [6] was inactive: -0.116. The log2 fold change [7] was inactive: -0.073, the log2 fold change [8] was inactive: -0.04 and the log2 fold change [9] was inactive: 0.137. The log2 fold change [10] was inactive: -0.13, the log2 fold change [11] was inactive: 0.101 and the log2 fold change [12] was inactive: -0.067. For the same target, the log2 fold change [13] was inactive: -0.083, the log2 fold change [14] was inactive: -0.062 and the log2 fold change [15] was inactive: -0.229. The log2 fold change [16] was inactive: 0.093, the log2 fold change [17] was inactive: 0.11 and the log2 fold change [18] was inactive: -0.018.
With OGFOD1 (UniProt Q8N543) the log2 fold change [1] was active: -0.294, the log2 fold change [2] was inactive: -0.05 and the log2 fold change [3] was inactive: -0.02. For the same target, the log2 fold change [4] was inactive: -0.038, the log2 fold change [5] was inactive: -0.021 and the log2 fold change [6] was inactive: 0.001. For the same target, the log2 fold change [7] was inactive: 0.015, the log2 fold change [8] was inactive: 0.041 and the log2 fold change [9] was inactive: -0.034. The log2 fold change [10] was inactive: 0.065, the log2 fold change [11] was inactive: 0.034 and the log2 fold change [12] was inactive: -0.001. The log2 fold change [13] was inactive: 0.042, the log2 fold change [14] was inactive: 0.003 and the log2 fold change [15] was inactive: -0.009. For the same target, the log2 fold change [16] was inactive: -0.021, the log2 fold change [17] was inactive: -0.015 and the log2 fold change [18] was inactive: -0.043.
In the case of NUDCD2 (UniProt Q8WVJ2), the log2 fold change [1] is reported as inactive: 0.072, the log2 fold change [2] is reported as inactive: -0.016 and the log2 fold change [3] is reported as inactive: 0.065. For the same target, the log2 fold change [4] was inactive: 0.075, the log2 fold change [5] was inactive: -0.011 and the log2 fold change [6] was inactive: 0.117. For the same target, the log2 fold change [7] was inactive: 0.083, the log2 fold change [8] was inactive: -0.018 and the log2 fold change [9] was inactive: -0.038. For the same target, the log2 fold change [10] was inactive: 0.014, the log2 fold change [11] was inactive: 0.049 and the log2 fold change [12] was inactive: -0.02. For the same target, the log2 fold change [13] was inactive: 0.1, the log2 fold change [14] was inactive: -0.077 and the log2 fold change [15] was inactive: -0.042. For the same target, the log2 fold change [16] was inactive: 0.073, the log2 fold change [17] was inactive: -0.049 and the log2 fold change [18] was inactive: -0.12.
With NUP54 (UniProt Q7Z3B4) the log2 fold change [1] was inactive: 0.077, the log2 fold change [2] was inactive: -0.064 and the log2 fold change [3] was inactive: 0.002. The log2 fold change [4] was inactive: -0.03, the log2 fold change [5] was inactive: 0.016 and the log2 fold change [6] was inactive: 0.065. The log2 fold change [7] was inactive: -0.015, the log2 fold change [8] was inactive: -0.011 and the log2 fold change [9] was inactive: -0.022. For the same target, the log2 fold change [10] was inactive: -0.005, the log2 fold change [11] was inactive: 0.015 and the log2 fold change [12] was inactive: -0.043. For the same target, the log2 fold change [13] was inactive: 0.019, the log2 fold change [14] was inactive: 0.013 and the log2 fold change [19] was inactive: -0.011. For the same target, the log2 fold change [15] was inactive: -0.023, the log2 fold change [20] was inactive: -0.038 and the log2 fold change [16] was inactive: 0.044. For the same target, the log2 fold change [17] was inactive: 0.015 and the log2 fold change [18] was inactive: -0.049.
In the case of OTUD6B (UniProt Q8N6M0), the log2 fold change [1] is reported as inactive: 0.016, the log2 fold change [2] is reported as inactive: -0.025 and the log2 fold change [3] is reported as inactive: 0.1. The log2 fold change [4] was inactive: -0.012, the log2 fold change [5] was inactive: 0.005 and the log2 fold change [6] was inactive: 0.005. For the same target, the log2 fold change [7] was inactive: -0.017, the log2 fold change [8] was inactive: -0.013 and the log2 fold change [9] was inactive: -0.028. The log2 fold change [10] was inactive: 0.017, the log2 fold change [11] was inactive: 0.013 and the log2 fold change [12] was inactive: -0.146. For the same target, the log2 fold change [13] was inactive: 0.024, the log2 fold change [14] was inactive: 0 and the log2 fold change [15] was inactive: -0.086. For the same target, the log2 fold change [16] was inactive: 0.122, the log2 fold change [17] was inactive: 0.009 and the log2 fold change [18] was inactive: -0.165.
With NUDT18 (UniProt Q6ZVK8) the log2 fold change [1] was inactive: -0.095, the log2 fold change [2] was inactive: 0.013 and the log2 fold change [3] was inactive: -0.283. The log2 fold change [4] was inactive: -0.049, the log2 fold change [5] was inactive: -0.168 and the log2 fold change [6] was inactive: 0.008. The log2 fold change [7] was inactive: -0.047, the log2 fold change [8] was inactive: 0.01 and the log2 fold change [9] was inactive: -0.059. For the same target, the log2 fold change [10] was inactive: -0.076, the log2 fold change [11] was inactive: 0 and the log2 fold change [12] was inactive: 0.079. For the same target, the log2 fold change [13] was inactive: -0.263, the log2 fold change [14] was inactive: -0.109 and the log2 fold change [15] was inactive: 0.032. The log2 fold change [20] was inactive: -0.025, the log2 fold change [17] was inactive: -0.11 and the log2 fold change [18] was inactive: 0.013.
In the case of OSTM1 (UniProt Q86WC4), the log2 fold change [1] is reported as inactive: -0.012, the log2 fold change [2] is reported as inactive: -0.122 and the log2 fold change [3] is reported as inactive: 0.007. The log2 fold change [4] was inactive: 0.002, the log2 fold change [5] was inactive: -0.015 and the log2 fold change [6] was inactive: -0.09. For the same target, the log2 fold change [7] was inactive: -0.066, the log2 fold change [8] was inactive: 0.002 and the log2 fold change [9] was inactive: 0.056. The log2 fold change [10] was inactive: 0.055, the log2 fold change [11] was inactive: -0.014 and the log2 fold change [12] was inactive: -0.244. For the same target, the log2 fold change [13] was inactive: 0.028, the log2 fold change [14] was inactive: -0.021 and the log2 fold change [15] was inactive: -0.225. For the same target, the log2 fold change [16] was inactive: -0.033, the log2 fold change [17] was inactive: 0.041 and the log2 fold change [18] was active: -0.308.
For NUP35 (UniProt Q8NFH5), the log2 fold change [1] was inactive: -0.02, the log2 fold change [2] was inactive: -0.011 and the log2 fold change [3] was inactive: -0.056. The log2 fold change [4] was inactive: 0.002, the log2 fold change [5] was inactive: -0.02 and the log2 fold change [6] was inactive: -0.062. The log2 fold change [7] was inactive: -0.015, the log2 fold change [8] was inactive: -0.019 and the log2 fold change [9] was inactive: -0.004. For the same target, the log2 fold change [10] was inactive: -0.051, the log2 fold change [11] was inactive: 0.036 and the log2 fold change [12] was inactive: -0.04. The log2 fold change [13] was inactive: 0.12, the log2 fold change [14] was inactive: -0.022 and the log2 fold change [19] was inactive: 0.072. The log2 fold change [15] was inactive: 0.023, the log2 fold change [20] was inactive: -0.026 and the log2 fold change [16] was inactive: -0.014. For the same target, the log2 fold change [17] was inactive: 0.111 and the log2 fold change [18] was inactive: 0.001.
In the case of OAT (UniProt P04181), the log2 fold change [1] is reported as inactive: -0.028, the log2 fold change [2] is reported as inactive: -0.183 and the log2 fold change [3] is reported as inactive: 0.03. For the same target, the log2 fold change [4] was inactive: -0.054, the log2 fold change [5] was inactive: -0.025 and the log2 fold change [6] was inactive: -0.095. For the same target, the log2 fold change [7] was inactive: 0.011, the log2 fold change [8] was inactive: 0.004 and the log2 fold change [9] was inactive: -0.076. The log2 fold change [10] was inactive: 0.12, the log2 fold change [11] was inactive: -0.003 and the log2 fold change [12] was inactive: -0.123. The log2 fold change [13] was inactive: 0.053, the log2 fold change [14] was inactive: -0.083 and the log2 fold change [15] was inactive: -0.03. For the same target, the log2 fold change [16] was inactive: 0.018, the log2 fold change [17] was inactive: 0.037 and the log2 fold change [18] was active: -0.233.
